Assay results reported in US10688131B2, “Peptides and scaffolds for use in immunotherapy against head and neck squamous cell carcinoma and other cancers” (Immatics Biotechnologies GmbH, priority 2016, dated 2020).

Columns and labels:
[1] = test system: head and neck squamous cell carcinoma samples; assay: Identification and label-free LC-MS quantitation of HLA-presented peptides (presentation profile) on HNSCC versus normal tissues; design: species or system human; key: very highly over-presented on tumors compared to a panel of normal tissues (+++); highly over-presented on tumors compared to a panel of normal tissues (++); over-presented on tumors compared to a panel of normal tissues (+); conditions: presentation score: over-presentation on head and neck squamous cell carcinoma tumors compared to a panel of normal tissues
[2] = test system: additional tumor types; assay: LC-MS presentation of peptides on additional tumor types versus normal tissues; design: species or system human; conditions: for Other relevant organs/diseases: additional tumor types where over-presented on more than 5% of measured tumor samples, or presented on more than 5% with ratio of geometric means tumor vs normal larger than 3 (Table 4A); for Additional Entities: additional tumor types, same criteria, other normal tissue panel (Table 4B)

Substance	Peptide Presentation [1]	Other relevant organs/diseases [2]	Additional Entities [2]
1 (GLAGGFGGPGFPV; listed as Homo sapiens) [compound 1]	+++	Gallbladder Cancer, Bile Duct Cancer	
2 (PVCPPGGIQEV; listed as Homo sapiens) [compound 2]	+++	NSCLC, SCLC	Esophageal Cancer
3 (SLYGLGGSKRISI; listed as Homo sapiens) [compound 3]	+++	Esophageal Cancer, Urinary bladder cancer	
5 (VCPPGGIQEV; listed as Homo sapiens) [compound 5]	+++		
12 (TLTDEINFL; listed as Homo sapiens) [compound 12]	+++		
13 (SLVSYLDKV; listed as Homo sapiens) [compound 13]	+++		
14 (RIMEGIPTV; listed as Homo sapiens) [compound 14]	+++		
18 (YLYPDLSRL; listed as Homo sapiens) [compound 18]		Brain Cancer	
22 (KLPEPCPSTV; listed as Homo sapiens) [compound 22]	+++		
25 (SLCPPGGIQEV; listed as Homo sapiens) [compound 25]	+++		
26 (TLVDENQSWYL; listed as Homo sapiens) [compound 26]	+++		
28 (AVDPVSGSLYV; listed as Homo sapiens) [compound 28]	+++		
30 (TLASLGYAVV; listed as Homo sapiens) [compound 30]	+++		
33 (AIYEGVGWNV; listed as Homo sapiens) [compound 33]	+++		
34 (ALDTFSVQV; listed as Homo sapiens) [compound 34]	+++		
35 (ALVGDVILTV; listed as Homo sapiens) [compound 35]	+++		
36 (GLWSSIFSL; listed as Homo sapiens) [compound 36]	+++		
38 (KLLPGVQYV; listed as Homo sapiens) [compound 38]	+++		
40 (LLTPLNLQI; listed as Homo sapiens) [compound 40]	+++		
44 (GLGDDSFPI; listed as Homo sapiens) [compound 44]	+++		
55 (VLNVGVAEV; listed as Homo sapiens) [compound 55]	+++		
57 (AILGFALSEA; listed as Homo sapiens) [compound 57]		AML, BRCA, Melanoma, Uterine Cancer, Gallbladder Cancer, Bile Duct Cancer	HCC
64 (KILESLFVSL; listed as Homo sapiens) [compound 64]		NSCLC, Urinary bladder cancer, Gallbladder Cancer, Bile Duct Cancer	
65 (ALWGFFPVLL; listed as Homo sapiens) [compound 65]		CLL, Melanoma	HCC
66 (TLLSEIAEL; listed as Homo sapiens) [compound 66]		CLL, NHL, AML, Melanoma, OC, Uterine Cancer	HCC
76 (ILFDEVLTFA; listed as Homo sapiens) [compound 76]		CLL, NHL, AML, BRCA, Uterine Cancer, Gallbladder Cancer, Bile Duct Cancer	
77 (SLRAFLMPI; listed as Homo sapiens) [compound 77]		AML	
84 (ALMAGCIQEA; listed as Homo sapiens) [compound 84]	+++		
87 (ALPEPSPAA; listed as Homo sapiens) [compound 87]		RCC, NHL, Melanoma, Gallbladder Cancer, Bile Duct Cancer	
89 (VLDEGLTSV; listed as Homo sapiens) [compound 89]		SCLC, RCC, CLL, NHL, BRCA, Melanoma, Urinary bladder cancer, Uterine Cancer	
